# Measured values reported in article PMC5308672.
# Sequences of proteins named here, by UniProt entry; tags and fusion partners are left off. Residues count along the entry.
# UniProt Q00887, residues 35-426: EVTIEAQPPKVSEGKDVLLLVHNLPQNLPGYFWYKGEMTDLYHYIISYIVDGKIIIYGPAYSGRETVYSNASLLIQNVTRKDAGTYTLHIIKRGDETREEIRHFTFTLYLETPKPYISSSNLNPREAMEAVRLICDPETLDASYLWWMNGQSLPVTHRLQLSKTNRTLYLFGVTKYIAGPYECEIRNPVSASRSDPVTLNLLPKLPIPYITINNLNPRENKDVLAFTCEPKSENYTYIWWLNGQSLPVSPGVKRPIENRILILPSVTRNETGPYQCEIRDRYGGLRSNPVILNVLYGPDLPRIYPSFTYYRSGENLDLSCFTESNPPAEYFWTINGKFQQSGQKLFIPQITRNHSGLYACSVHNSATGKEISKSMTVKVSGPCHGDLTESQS
# UniProt Q13485: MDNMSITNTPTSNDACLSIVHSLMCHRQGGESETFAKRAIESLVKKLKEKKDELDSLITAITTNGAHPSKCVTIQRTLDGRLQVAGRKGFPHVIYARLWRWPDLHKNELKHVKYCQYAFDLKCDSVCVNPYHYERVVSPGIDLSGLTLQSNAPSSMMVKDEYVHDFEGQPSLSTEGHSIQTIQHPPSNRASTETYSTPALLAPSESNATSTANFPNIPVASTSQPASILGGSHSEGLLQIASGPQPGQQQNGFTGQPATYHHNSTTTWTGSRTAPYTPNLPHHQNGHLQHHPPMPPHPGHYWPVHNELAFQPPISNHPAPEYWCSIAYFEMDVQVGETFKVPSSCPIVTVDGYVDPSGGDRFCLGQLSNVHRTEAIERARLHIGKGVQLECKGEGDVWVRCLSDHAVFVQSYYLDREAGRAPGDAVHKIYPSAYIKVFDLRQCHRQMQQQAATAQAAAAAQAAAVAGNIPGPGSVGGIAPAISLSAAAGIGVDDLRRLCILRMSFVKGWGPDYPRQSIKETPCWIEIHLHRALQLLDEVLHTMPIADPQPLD
# UniProt Q15796: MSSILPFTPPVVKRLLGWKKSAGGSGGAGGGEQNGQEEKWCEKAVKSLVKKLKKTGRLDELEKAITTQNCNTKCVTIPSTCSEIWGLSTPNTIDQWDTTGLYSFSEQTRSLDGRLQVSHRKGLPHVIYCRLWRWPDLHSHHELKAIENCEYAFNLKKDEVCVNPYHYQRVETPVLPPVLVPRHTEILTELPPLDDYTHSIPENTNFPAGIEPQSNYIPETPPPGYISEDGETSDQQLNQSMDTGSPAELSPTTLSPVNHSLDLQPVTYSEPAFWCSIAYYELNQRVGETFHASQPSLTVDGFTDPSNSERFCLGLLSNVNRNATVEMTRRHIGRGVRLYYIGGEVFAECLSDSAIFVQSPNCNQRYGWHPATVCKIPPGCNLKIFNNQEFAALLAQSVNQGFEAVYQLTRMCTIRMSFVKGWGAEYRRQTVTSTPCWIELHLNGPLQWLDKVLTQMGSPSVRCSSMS
# UniProt P84022: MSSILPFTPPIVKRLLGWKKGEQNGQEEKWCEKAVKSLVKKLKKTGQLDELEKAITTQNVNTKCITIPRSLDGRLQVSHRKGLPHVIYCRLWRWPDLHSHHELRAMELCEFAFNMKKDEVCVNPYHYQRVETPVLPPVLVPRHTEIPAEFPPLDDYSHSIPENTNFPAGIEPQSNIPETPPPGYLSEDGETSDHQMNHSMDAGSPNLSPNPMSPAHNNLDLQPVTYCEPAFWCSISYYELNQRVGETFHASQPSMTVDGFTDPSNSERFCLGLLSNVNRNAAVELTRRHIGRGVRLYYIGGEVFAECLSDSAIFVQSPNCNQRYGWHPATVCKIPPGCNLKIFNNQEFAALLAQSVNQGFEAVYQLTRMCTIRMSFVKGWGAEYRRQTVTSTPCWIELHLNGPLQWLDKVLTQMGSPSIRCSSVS
# No constants are given. Whether binding was seen depends on the method and setting. Binding seen in cells or lysates may run through a third protein. Some entries that bind do so weakly or less than the wild type.
# Columns and labels:
# [1] = biological target: c-myc-pcDNA3.1-PSG9 (human) (UniProt Q00887); experiment: co-IP; HCT-116 cells co-transfected for 24 hours with c-myc-pcDNA3.1-PSG9 and Flag-SMAD2, Flag-SMAD3 or Flag-SMAD4; IP with anti-c-myc (blot Flag) or anti-Flag (blot c-myc); 2 ug antibody overnight at 4°C, Protein A/G agarose, washes in RIPA lysis buffer
# [2] = biological target: SMAD4, endogenous (human (endogenous in SW-480, HT-29, HCT-116)) (UniProt Q13485); experiment: co-IP; endogenous proteins in lysates of SW-480, HT-29 and HCT-116 cells; IP with anti-SMAD4 (blot PSG9) or anti-PSG9 (blot SMAD4), mouse or rabbit IgG as negative control; 2 ug antibody overnight at 4°C, Protein A/G agarose, washes in RIPA lysis buffer
# Flag-SMAD2 = Flag-SMAD2 (UniProt Q15796); experiment: co-IP; HCT-116 cells co-transfected for 24 hours with c-myc-pcDNA3.1-PSG9 and Flag-SMAD2, Flag-SMAD3 or Flag-SMAD4; IP with anti-c-myc (blot Flag) or anti-Flag (blot c-myc); 2 ug antibody overnight at 4°C, Protein A/G agarose, washes in RIPA lysis buffer
# Flag-SMAD3 = Flag-SMAD3 (UniProt P84022); experiment: as above
# Flag-SMAD4 = Flag-SMAD4 (UniProt Q13485); experiment: as above
substance,measurement,setting,value
Flag-SMAD2 (from UniProt Q15796 1-467),binding,[1],binds
Flag-SMAD3 (from UniProt P84022 1-425),binding,[1],binds
Flag-SMAD4 (from UniProt Q13485 1-552),binding,[1],binds
"Pregnancy-specific glycoprotein 9 (PSG9), endogenous (from UniProt Q00887 35-426)",binding,[2],binds
c-myc-pcDNA3.1-PSG9 (from UniProt Q00887 35-426),binding,Flag-SMAD2,binds
same,binding,Flag-SMAD3,binds
same,binding,Flag-SMAD4,binds
